# Measured values: PMC7618119
# The chains behind the UniProt entries cited, without tags or fusion partners.
# UniProt P35372, whole entry: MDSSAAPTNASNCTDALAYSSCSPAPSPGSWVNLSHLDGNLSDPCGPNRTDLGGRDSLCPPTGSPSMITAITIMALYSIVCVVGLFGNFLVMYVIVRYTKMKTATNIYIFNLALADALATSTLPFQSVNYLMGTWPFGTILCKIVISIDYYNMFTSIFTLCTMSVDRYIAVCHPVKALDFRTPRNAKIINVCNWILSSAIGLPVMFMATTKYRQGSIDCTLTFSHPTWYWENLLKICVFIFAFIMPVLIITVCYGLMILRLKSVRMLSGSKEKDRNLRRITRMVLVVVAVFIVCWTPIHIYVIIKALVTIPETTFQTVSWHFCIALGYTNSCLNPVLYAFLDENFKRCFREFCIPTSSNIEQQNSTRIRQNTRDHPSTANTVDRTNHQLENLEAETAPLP
# UniProt P32121, whole entry: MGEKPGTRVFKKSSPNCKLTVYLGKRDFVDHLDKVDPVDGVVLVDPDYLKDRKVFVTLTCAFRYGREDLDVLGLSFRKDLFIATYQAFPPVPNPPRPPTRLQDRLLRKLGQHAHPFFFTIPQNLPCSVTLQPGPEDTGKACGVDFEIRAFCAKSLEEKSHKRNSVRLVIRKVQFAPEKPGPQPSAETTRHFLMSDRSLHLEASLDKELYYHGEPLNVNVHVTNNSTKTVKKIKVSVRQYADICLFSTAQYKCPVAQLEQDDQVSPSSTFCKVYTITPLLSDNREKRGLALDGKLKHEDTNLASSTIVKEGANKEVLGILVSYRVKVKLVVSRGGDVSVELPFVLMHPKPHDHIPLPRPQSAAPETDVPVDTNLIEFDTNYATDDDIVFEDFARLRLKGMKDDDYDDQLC
# No constants are given. Whether binding was seen depends on the method and setting. In cells and extracts the contact can be indirect. Some results given as binding are weak or reduced against the parent protein; the word gives no strength.
# Molecular target: human μ-opioid receptor-RlucII (human) (UniProt P35372)
# Experiment: FRET or BRET; BRET2 in intact HEK293T cells transiently transfected with human μ-opioid receptor-RlucII and β-arrestin-2-GFP; 37°C; coelenterazine 400a 5 μM; read 10 min after opioid agonist application
substance,measurement,value
β-arrestin-2-GFP (from UniProt P32121 1-409),binding,binds
